# Results: the supplement of paper PMC8728848
# This is one part of the list.
# B1: B3GalT2 (Rattus norvegicus) (protein)
# chain: LMLQWRRRHCCFAKMSWNAKRSLFRTHLMGVLSLVFLFAMFLFFNHHDWLPGRPGFKENPVTYTFRGFRSTKTETNQSSLRNIWKEVVPQTLRPQTATNSNNTELSPQGVTGLENTLSANGSIYNEKGTGHPNSYHFKYIINEPEKCQEKSPFLILLIAAEPGQIEARRAIRQTWGNETLAPGIQITRIFLLGISIKLNGYLQHAIQEESIQYHDIIQQEYLDTYYNLTIKTLMGMNWVATYCPHTPYVMKTDSDMFVNTEYLIHKLLKPDLPPRHNYFTGYLMRGYAPNRNKDSKWYMPPDLYPSERYPVFCSGTGYVFSGDLAEKIFKVSLGIRRLHLEDVYVGICLAKLRVDPVPPPNEFVFNHWRVSYSSCKYSHLITSHQFQPSELIKYWNHLQQNKHNACVNAAKEKAGRYRHRKLH
# Legend:
# Experiment in all cases: glycan array binding signal (z-score within array); higher = stronger binding
# Settings in all cases: glycan notation: IUPAC condensed, linker removed
# [1] = target: GlcNAc(b1-3)Gal(b1-4)Glc
# Procedure, shortened: (§1)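 The binding signal is a Z-score computed within each array. Data were drawn from 3228 arrays in the Consortium for Functional Glycomics database, restricted to those with a known protein sequence. Scores were averaged over arrays of the same protein sequence at different concentrations or buffers, and over linkers, and negative values can be taken as non-binding.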
# [2] = target: GlcNAc(b1-3)Gal(b1-4)GlcNAc
# Procedure, shortened: as §1
# [3] = target: GlcNAc(b1-3)Gal(b1-4)GlcNAc(b1-2)Man(a1-3)[GlcNAc(b1-3)Gal(b1-4)GlcNAc(b1-2)Man(a1-6)]Man(b1-4)GlcNAc(b1-4)GlcNAc
# Procedure, shortened: as §1
# [4] = target: GlcNAc(b1-3)Gal(b1-4)GlcNAc(b1-2)Man(a1-3)[GlcNAc(b1-3)Gal(b1-4)GlcNAc(b1-2)Man(a1-6)]Man(b1-4)GlcNAc(b1-4)[Fuc(a1-6)]GlcNAc
# Procedure, shortened: as §1
# [5] = target: GlcNAc(b1-3)Gal(b1-4)GlcNAc(b1-2)[GlcNAc(b1-3)Gal(b1-4)GlcNAc(b1-6)]Man(a1-6)[GlcNAc(b1-3)Gal(b1-4)GlcNAc(b1-2)Man(a1-3)]Man(b1-4)GlcNAc(b1-4)GlcNAc
# Procedure, shortened: as §1
# [6] = target: GlcNAc(b1-3)Gal(b1-4)GlcNAc(b1-3)Gal(b1-4)GlcNAc
# Procedure, shortened: as §1
# [7] = target: GlcNAc(b1-3)Gal(b1-4)GlcNAc(b1-3)Gal(b1-4)GlcNAc(b1-2)Man(a1-3)[GlcNAc(b1-3)Gal(b1-4)GlcNAc(b1-3)Gal(b1-4)GlcNAc(b1-2)Man(a1-6)]Man(b1-4)GlcNAc(b1-4)GlcNAc
# Procedure, shortened: as §1
# [8] = target: GlcNAc(b1-3)Gal(b1-4)GlcNAc(b1-3)Gal(b1-4)GlcNAc(b1-2)Man(a1-3)[GlcNAc(b1-3)Gal(b1-4)GlcNAc(b1-3)Gal(b1-4)GlcNAc(b1-2)Man(a1-6)]Man(b1-4)GlcNAc(b1-4)[Fuc(a1-6)]GlcNAc
# Procedure, shortened: as §1
# [9] = target: GlcNAc(b1-3)Gal(b1-4)GlcNAc(b1-3)Gal(b1-4)GlcNAc(b1-2)[GlcNAc(b1-3)Gal(b1-4)GlcNAc(b1-3)Gal(b1-4)GlcNAc(b1-6)]Man(a1-6)[GlcNAc(b1-3)Gal(b1-4)GlcNAc(b1-3)Gal(b1-4)GlcNAc(b1-2)Man(a1-3)]Man(b1-4)GlcNAc(b1-4)[Fuc(a1-6)]GlcNAc
# Procedure, shortened: as §1
# [10] = target: GlcNAc(b1-3)Gal(b1-4)GlcNAc(b1-3)Gal(b1-4)GlcNAc(b1-3)Gal(b1-4)GlcNAc(b1-2)Man(a1-3)[GlcNAc(b1-3)Gal(b1-4)GlcNAc(b1-3)Gal(b1-4)GlcNAc(b1-3)Gal(b1-4)GlcNAc(b1-2)Man(a1-6)]Man(b1-4)GlcNAc(b1-4)GlcNAc
# Procedure, shortened: as §1
# [11] = target: GlcNAc(b1-3)Gal(b1-4)GlcNAc(b1-3)Gal(b1-4)GlcNAc(b1-3)Gal(b1-4)GlcNAc(b1-2)Man(a1-3)[GlcNAc(b1-3)Gal(b1-4)GlcNAc(b1-3)Gal(b1-4)GlcNAc(b1-3)Gal(b1-4)GlcNAc(b1-2)Man(a1-6)]Man(b1-4)GlcNAc(b1-4)[Fuc(a1-6)]GlcNAc
# Procedure, shortened: as §1
# [12] = target: GlcNAc(b1-3)Gal(b1-4)GlcNAc(b1-3)Gal(b1-4)GlcNAc(b1-3)Gal(b1-4)GlcNAc(b1-2)[GlcNAc(b1-3)Gal(b1-4)GlcNAc(b1-3)Gal(b1-4)GlcNAc(b1-3)Gal(b1-4)GlcNAc(b1-6)]Man(a1-6)[GlcNAc(b1-3)Gal(b1-4)GlcNAc(b1-3)Gal(b1-4)GlcNAc(b1-3)Gal(b1-4)GlcNAc(b1-2)Man(a1-3)]Man(b1-4)GlcNAc(b1-4)[Fuc(a1-6)]GlcNAc
# Procedure, shortened: as §1
# [13] = target: GlcNAc(b1-3)Gal(b1-4)GlcNAc(b1-3)Gal(b1-4)GlcNAc(b1-3)Gal(b1-4)GlcNAc(b1-3)Gal(b1-4)GlcNAc(b1-2)Man(a1-3)[GlcNAc(b1-3)Gal(b1-4)GlcNAc(b1-3)Gal(b1-4)GlcNAc(b1-3)Gal(b1-4)GlcNAc(b1-3)Gal(b1-4)GlcNAc(b1-2)Man(a1-6)]Man(b1-4)GlcNAc(b1-4)GlcNAc
# Procedure, shortened: as §1
# [14] = target: GlcNAc(b1-3)Gal(b1-4)GlcNAc(b1-3)Gal(b1-4)GlcNAc(b1-3)Gal(b1-4)GlcNAc(b1-3)Gal(b1-4)GlcNAc(b1-2)Man(a1-3)[GlcNAc(b1-3)Gal(b1-4)GlcNAc(b1-3)Gal(b1-4)GlcNAc(b1-3)Gal(b1-4)GlcNAc(b1-3)Gal(b1-4)GlcNAc(b1-2)Man(a1-6)]Man(b1-4)GlcNAc(b1-4)[Fuc(a1-6)]GlcNAc
# Procedure, shortened: as §1
# [15] = target: GlcNAc(b1-3)Gal(b1-4)GlcNAc(b1-3)Gal(b1-4)GlcNAc(b1-3)Gal(b1-4)GlcNAc(b1-3)Gal(b1-4)GlcNAc(b1-2)[GlcNAc(b1-3)Gal(b1-4)GlcNAc(b1-3)Gal(b1-4)GlcNAc(b1-3)Gal(b1-4)GlcNAc(b1-3)Gal(b1-4)GlcNAc(b1-6)]Man(a1-6)[GlcNAc(b1-3)Gal(b1-4)GlcNAc(b1-3)Gal(b1-4)GlcNAc(b1-3)Gal(b1-4)GlcNAc(b1-3)Gal(b1-4)GlcNAc(b1-2)Man(a1-3)]Man(b1-4)GlcNAc(b1-4)[Fuc(a1-6)]GlcNAc
# Procedure, shortened: as §1
# [16] = target: GlcNAc(b1-3)Gal(b1-4)GlcNAc(b1-3)Gal(b1-4)GlcNAc(b1-3)GalNAc
# Procedure, shortened: as §1
# [17] = target: GlcNAc(b1-3)Gal(b1-4)GlcNAc(b1-3)GalNAc
# Procedure, shortened: as §1
# [18] = target: GlcNAc(b1-3)Gal(b1-4)GlcNAc(b1-3)[GlcNAc(b1-3)Gal(b1-4)GlcNAc(b1-3)]GalNAc
# Procedure, shortened: as §1
# [19] = target: GlcNAc(b1-3)Gal(b1-4)GlcNAc(b1-6)[Gal(b1-3)]GalNAc
# Procedure, shortened: as §1
# [20] = target: GlcNAc(b1-3)Gal(b1-4)GlcNAc(b1-6)[GlcNAc(b1-3)Gal(b1-3)]GalNAc
# Procedure, shortened: as §1
# [21] = target: GlcNAc(b1-3)Gal(b1-4)GlcNAc(b1-6)[GlcNAc(b1-3)]Gal(b1-4)GlcNAc
# Procedure, shortened: as §1
# [22] = target: GlcNAc(b1-3)GalNAc
# Procedure, shortened: as §1
# [23] = target: GlcNAc(b1-3)Man
# Procedure, shortened: as §1
# [24] = target: GlcNAc(b1-3)[GlcNAc(b1-4)][GlcNAc(b1-6)]GlcNAc
# Procedure, shortened: as §1
# [25] = target: GlcNAc(b1-3)[GlcNAc(b1-6)]Gal(b1-4)GlcNAc
# Procedure, shortened: as §1
# [26] = target: GlcNAc(b1-3)[GlcNAc(b1-6)]GalNAc
# Procedure, shortened: as §1
# [27] = target: GlcNAc(b1-4)Gal(b1-4)GlcNAc
# Procedure, shortened: as §1
# [28] = target: GlcNAc(b1-4)GlcNAc
# Procedure, shortened: as §1
# [29] = target: GlcNAc(b1-4)GlcNAc(b1-4)GlcNAc
# Procedure, shortened: as §1
# [30] = target: GlcNAc(b1-4)GlcNAc(b1-4)GlcNAc(b1-4)GlcNAc(b1-4)GlcNAc
# Procedure, shortened: as §1
# [31] = target: GlcNAc(b1-4)GlcNAc(b1-4)GlcNAc(b1-4)GlcNAc(b1-4)GlcNAc(b1-4)GlcNAc
# Procedure, shortened: as §1
# [32] = target: GlcNAc(b1-4)[GlcNAc(b1-6)]GalNAc
# Procedure, shortened: as §1
# [33] = target: GlcNAc(b1-6)Gal(b1-4)GlcNAc
# Procedure, shortened: as §1
# [34] = target: GlcNAc(b1-6)GalNAc
# Procedure, shortened: as §1
# [35] = target: GlcNAc6S(b1-3)Gal(b1-4)GlcNAc
# Procedure, shortened: as §1
# [36] = target: Kdn(a2-3)Gal(b1-3)GalNAc
# Procedure, shortened: as §1
# [37] = target: Kdn(a2-3)Gal(b1-3)GlcNAc
# Procedure, shortened: as §1
binder,measurement,setting,value
B1,glycan array binding signal (z-score),[1],0.471
same,glycan array binding signal (z-score),[2],-0.042
same,glycan array binding signal (z-score),[3],-0.524
same,glycan array binding signal (z-score),[4],0.685
same,glycan array binding signal (z-score),[5],-1.04
same,glycan array binding signal (z-score),[6],-0.743
same,glycan array binding signal (z-score),[7],-0.197
same,glycan array binding signal (z-score),[8],0.705
same,glycan array binding signal (z-score),[9],-0.891
same,glycan array binding signal (z-score),[10],-0.641
same,glycan array binding signal (z-score),[11],0.041
same,glycan array binding signal (z-score),[12],-1.03
same,glycan array binding signal (z-score),[13],0.448
same,glycan array binding signal (z-score),[14],0.499
same,glycan array binding signal (z-score),[15],-1.04
same,glycan array binding signal (z-score),[16],-1.03
same,glycan array binding signal (z-score),[17],0.966
same,glycan array binding signal (z-score),[18],-1.1
same,glycan array binding signal (z-score),[19],-0.371
same,glycan array binding signal (z-score),[20],-0.96
same,glycan array binding signal (z-score),[21],-0.836
same,glycan array binding signal (z-score),[22],0.005
same,glycan array binding signal (z-score),[23],-0.341
same,glycan array binding signal (z-score),[24],-0.219
same,glycan array binding signal (z-score),[25],-0.284
same,glycan array binding signal (z-score),[26],0.347
same,glycan array binding signal (z-score),[27],-0.559
same,glycan array binding signal (z-score),[28],-0.423
same,glycan array binding signal (z-score),[29],-0.516
same,glycan array binding signal (z-score),[30],-0.992
same,glycan array binding signal (z-score),[31],-0.344
same,glycan array binding signal (z-score),[32],0.98
same,glycan array binding signal (z-score),[33],1.2
same,glycan array binding signal (z-score),[34],0.289
same,glycan array binding signal (z-score),[35],-0.026
same,glycan array binding signal (z-score),[36],-0.311
same,glycan array binding signal (z-score),[37],-0.242

# 2 neighbouring records from above:
binder,measurement,setting,value
B1,glycan array binding signal (z-score),[5],-1.04
same,glycan array binding signal (z-score),[6],-0.743
